Results are given in words; binding and its absence hold for the method and conditions named. In cells and extracts the contact can be indirect. Some results given as binding are weak or reduced against the parent protein; the word gives no strength.
Target: MLH1 (human (endogenous in HEK293)) (UniProt P40692)
Test: co-IP; endogenous proteins; whole cell extract of MLH1 proficient HEK293 cells precipitated with protein A/G sepharose and anti-MLH1 or anti-SPTAN1, SDS-PAGE and Western blot; protein A/G sepharose alone as negative control

Protein sequences, listed by entry. Tags and fused reporters are not part of them.
UniProt P40692: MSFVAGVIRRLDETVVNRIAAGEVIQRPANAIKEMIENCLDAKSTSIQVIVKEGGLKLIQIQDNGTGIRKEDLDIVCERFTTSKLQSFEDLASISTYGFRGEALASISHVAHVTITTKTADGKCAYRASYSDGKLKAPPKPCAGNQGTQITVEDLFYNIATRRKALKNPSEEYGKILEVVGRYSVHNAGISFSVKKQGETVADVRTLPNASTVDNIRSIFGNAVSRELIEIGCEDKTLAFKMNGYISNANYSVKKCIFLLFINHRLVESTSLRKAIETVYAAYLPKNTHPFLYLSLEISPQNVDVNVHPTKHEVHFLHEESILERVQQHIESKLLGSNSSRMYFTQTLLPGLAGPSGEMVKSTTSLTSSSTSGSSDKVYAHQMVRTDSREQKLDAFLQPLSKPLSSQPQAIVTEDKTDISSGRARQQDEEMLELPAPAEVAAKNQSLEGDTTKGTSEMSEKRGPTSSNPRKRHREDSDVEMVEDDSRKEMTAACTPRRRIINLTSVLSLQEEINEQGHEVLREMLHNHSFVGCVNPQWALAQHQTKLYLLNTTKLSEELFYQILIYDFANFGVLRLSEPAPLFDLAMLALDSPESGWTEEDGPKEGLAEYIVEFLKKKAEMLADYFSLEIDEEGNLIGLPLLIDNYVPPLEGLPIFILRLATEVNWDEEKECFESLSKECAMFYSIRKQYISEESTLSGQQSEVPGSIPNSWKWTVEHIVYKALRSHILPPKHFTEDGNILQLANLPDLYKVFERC

binding: binds
Substance: non-erythroid spectrin αII (SPTAN1) (from UniProt Q13813 1-2472)
